Measured values reported in article PMC7190626.
Results are given in words; binding and its absence hold for the method and conditions named. In cells and extracts the contact can be indirect. These calls come from enrichment with a bait or labelling near it, and not all partners need be listed.

By UniProt entry, the sequences of proteins in these tests, tags left out.
UniProt P25100: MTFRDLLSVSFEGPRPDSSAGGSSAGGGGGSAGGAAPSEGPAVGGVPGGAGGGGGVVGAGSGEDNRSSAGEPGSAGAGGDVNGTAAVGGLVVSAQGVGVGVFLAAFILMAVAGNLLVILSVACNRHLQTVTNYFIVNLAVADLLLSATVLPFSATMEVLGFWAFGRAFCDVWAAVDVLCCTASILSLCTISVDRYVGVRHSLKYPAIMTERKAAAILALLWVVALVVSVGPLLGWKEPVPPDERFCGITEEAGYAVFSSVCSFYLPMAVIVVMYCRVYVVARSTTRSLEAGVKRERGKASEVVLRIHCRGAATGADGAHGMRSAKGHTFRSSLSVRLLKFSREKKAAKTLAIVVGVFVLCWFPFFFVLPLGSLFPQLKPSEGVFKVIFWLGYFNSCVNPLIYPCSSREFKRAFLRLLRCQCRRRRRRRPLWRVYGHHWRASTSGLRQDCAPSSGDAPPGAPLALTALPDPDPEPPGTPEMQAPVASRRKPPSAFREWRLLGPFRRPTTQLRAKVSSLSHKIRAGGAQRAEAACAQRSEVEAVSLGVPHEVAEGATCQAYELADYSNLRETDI
UniProt Q14160: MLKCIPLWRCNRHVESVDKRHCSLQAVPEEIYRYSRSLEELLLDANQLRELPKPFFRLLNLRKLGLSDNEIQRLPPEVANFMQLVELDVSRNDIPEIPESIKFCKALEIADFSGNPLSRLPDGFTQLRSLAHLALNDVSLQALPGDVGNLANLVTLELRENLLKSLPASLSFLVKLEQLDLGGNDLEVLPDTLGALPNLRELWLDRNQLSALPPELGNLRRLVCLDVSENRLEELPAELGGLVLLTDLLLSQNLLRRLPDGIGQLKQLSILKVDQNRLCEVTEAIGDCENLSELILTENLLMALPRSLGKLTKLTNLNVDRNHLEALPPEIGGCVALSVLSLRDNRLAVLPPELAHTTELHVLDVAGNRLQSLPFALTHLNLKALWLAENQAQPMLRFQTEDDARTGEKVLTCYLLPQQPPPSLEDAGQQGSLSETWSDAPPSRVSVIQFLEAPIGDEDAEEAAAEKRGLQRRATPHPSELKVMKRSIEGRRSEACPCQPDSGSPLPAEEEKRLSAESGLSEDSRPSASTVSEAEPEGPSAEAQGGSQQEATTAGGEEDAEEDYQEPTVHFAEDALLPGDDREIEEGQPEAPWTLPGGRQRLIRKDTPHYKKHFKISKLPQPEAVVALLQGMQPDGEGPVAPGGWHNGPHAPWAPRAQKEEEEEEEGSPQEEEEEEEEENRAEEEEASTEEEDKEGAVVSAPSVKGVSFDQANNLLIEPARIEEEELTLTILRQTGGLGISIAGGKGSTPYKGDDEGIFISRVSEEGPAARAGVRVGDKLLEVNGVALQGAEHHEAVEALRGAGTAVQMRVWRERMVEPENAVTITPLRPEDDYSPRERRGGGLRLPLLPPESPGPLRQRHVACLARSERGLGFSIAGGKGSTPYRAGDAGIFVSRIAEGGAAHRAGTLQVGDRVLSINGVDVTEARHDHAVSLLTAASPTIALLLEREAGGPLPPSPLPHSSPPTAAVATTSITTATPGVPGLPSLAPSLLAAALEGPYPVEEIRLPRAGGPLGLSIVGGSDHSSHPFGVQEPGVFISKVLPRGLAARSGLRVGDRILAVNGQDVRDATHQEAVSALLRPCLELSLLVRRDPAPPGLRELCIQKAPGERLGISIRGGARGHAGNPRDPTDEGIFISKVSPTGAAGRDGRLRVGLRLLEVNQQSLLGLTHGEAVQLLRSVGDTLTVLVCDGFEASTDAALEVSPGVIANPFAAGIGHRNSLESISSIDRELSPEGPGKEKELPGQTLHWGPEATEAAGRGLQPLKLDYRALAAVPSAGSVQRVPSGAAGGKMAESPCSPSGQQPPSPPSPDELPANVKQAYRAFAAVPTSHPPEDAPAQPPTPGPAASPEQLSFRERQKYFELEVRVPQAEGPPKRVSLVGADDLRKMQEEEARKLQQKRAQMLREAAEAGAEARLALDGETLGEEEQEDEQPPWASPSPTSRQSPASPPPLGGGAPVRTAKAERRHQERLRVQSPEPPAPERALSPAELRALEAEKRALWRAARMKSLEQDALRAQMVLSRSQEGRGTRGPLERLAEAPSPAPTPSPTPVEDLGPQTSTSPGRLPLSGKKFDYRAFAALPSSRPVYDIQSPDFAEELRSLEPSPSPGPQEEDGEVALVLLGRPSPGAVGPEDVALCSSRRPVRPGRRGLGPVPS

Molecular target: WT SNAP-α1D (N-terminal SNAP-epitope tagged α1D-adrenergic receptor) (UniProt P25100)
Assay: affinity purification with mass spectrometry; SNAP-fusion proteins captured covalently from HEK293 lysate (20 mM Tris-HCl pH 8, 200 mM NaCl, 5 mM DTT, 1% NP-40) on SNAP-Capture pull-down resin, 16 hr at 4 °C; on-bead digest with Trypsin and Glu-C; nanoLC-MS/MS

With scribble (from UniProt Q14160 1-1655) the binding was “binds”.
